3 substances from paper PMC12280033 can be followed below.

Amino acid sequences for entries named in this document (tags omitted).
UniProt P40763: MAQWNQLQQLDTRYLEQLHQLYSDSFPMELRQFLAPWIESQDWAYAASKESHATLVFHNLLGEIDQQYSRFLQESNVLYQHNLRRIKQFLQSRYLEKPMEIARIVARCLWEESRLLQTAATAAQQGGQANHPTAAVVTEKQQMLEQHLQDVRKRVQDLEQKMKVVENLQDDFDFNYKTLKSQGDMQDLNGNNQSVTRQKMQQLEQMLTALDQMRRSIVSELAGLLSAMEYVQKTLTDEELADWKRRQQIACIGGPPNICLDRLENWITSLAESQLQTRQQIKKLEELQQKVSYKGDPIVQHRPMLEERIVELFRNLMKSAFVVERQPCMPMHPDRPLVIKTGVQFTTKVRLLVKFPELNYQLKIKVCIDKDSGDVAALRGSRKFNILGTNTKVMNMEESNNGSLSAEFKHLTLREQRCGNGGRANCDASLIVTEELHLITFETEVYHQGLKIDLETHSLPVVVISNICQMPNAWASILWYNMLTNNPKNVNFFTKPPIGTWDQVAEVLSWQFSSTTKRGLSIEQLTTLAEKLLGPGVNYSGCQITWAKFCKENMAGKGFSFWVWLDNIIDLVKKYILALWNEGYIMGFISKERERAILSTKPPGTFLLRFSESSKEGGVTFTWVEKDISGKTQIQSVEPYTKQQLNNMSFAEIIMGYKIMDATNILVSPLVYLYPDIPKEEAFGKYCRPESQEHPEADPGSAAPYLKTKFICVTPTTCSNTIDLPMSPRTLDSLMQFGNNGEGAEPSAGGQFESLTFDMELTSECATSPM
UniProt Q9UPU5: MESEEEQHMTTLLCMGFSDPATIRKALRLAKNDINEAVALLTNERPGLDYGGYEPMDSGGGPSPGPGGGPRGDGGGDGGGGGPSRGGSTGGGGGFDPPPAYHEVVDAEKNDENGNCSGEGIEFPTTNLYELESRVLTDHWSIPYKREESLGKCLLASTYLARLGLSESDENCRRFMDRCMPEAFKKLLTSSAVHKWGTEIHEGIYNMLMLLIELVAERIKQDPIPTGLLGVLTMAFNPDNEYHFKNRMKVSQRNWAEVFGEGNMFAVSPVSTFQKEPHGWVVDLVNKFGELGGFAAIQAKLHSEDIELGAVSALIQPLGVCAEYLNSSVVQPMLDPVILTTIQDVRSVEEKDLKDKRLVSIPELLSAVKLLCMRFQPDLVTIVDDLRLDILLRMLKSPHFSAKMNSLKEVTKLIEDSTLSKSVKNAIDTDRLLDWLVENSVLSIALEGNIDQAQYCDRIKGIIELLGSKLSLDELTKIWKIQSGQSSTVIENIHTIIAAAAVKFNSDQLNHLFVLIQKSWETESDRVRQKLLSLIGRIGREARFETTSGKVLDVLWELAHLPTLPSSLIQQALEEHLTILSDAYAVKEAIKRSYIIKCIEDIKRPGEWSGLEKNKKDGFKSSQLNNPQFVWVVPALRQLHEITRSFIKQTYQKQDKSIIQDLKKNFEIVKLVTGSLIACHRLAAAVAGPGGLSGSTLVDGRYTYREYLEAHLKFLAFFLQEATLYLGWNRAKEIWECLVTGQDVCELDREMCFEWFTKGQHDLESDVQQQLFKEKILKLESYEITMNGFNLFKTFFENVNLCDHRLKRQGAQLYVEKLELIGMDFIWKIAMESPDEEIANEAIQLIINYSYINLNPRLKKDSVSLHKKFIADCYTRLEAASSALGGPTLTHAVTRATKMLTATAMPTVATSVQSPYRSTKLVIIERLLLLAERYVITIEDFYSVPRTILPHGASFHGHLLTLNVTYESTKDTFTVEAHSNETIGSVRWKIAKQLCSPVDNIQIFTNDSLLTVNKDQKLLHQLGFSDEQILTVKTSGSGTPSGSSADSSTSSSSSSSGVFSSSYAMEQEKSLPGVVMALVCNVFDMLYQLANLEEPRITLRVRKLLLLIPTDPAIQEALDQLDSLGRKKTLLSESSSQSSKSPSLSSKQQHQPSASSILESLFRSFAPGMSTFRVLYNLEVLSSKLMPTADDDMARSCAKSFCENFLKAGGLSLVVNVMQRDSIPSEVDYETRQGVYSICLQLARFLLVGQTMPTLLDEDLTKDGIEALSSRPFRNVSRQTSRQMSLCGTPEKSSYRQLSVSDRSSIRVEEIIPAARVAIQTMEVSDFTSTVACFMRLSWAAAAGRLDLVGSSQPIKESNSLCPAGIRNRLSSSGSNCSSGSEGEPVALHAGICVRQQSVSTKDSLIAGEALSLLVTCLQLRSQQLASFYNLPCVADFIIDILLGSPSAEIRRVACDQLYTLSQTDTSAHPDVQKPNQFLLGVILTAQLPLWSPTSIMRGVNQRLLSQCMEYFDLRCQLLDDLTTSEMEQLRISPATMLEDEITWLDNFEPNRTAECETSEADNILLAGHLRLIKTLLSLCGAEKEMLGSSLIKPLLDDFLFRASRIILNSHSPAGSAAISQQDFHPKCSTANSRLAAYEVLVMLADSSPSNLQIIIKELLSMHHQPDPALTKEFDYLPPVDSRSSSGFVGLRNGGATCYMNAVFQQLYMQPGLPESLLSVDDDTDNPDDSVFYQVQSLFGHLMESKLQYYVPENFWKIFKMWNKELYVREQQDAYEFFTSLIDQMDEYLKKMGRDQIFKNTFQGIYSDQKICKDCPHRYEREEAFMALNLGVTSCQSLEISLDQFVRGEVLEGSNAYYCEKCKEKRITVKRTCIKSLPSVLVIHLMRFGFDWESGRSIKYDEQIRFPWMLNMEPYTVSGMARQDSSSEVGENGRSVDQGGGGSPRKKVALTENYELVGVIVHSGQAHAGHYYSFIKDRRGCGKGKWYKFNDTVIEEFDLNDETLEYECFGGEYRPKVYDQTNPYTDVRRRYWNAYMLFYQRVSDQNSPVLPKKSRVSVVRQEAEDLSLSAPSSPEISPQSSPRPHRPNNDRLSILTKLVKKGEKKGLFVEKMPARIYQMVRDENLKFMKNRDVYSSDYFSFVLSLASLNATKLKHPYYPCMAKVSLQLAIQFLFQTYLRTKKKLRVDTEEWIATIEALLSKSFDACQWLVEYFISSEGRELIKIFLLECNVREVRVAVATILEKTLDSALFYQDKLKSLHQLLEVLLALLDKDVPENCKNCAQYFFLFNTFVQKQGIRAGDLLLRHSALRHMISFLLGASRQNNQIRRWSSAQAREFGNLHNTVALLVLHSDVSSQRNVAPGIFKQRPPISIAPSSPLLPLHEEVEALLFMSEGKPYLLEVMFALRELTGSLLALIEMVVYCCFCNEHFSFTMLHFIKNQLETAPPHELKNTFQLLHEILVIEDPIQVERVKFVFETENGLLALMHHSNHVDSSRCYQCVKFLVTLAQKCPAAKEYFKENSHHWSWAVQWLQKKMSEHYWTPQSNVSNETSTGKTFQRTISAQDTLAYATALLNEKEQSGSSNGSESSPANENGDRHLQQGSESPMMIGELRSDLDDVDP
UniProt Q93008: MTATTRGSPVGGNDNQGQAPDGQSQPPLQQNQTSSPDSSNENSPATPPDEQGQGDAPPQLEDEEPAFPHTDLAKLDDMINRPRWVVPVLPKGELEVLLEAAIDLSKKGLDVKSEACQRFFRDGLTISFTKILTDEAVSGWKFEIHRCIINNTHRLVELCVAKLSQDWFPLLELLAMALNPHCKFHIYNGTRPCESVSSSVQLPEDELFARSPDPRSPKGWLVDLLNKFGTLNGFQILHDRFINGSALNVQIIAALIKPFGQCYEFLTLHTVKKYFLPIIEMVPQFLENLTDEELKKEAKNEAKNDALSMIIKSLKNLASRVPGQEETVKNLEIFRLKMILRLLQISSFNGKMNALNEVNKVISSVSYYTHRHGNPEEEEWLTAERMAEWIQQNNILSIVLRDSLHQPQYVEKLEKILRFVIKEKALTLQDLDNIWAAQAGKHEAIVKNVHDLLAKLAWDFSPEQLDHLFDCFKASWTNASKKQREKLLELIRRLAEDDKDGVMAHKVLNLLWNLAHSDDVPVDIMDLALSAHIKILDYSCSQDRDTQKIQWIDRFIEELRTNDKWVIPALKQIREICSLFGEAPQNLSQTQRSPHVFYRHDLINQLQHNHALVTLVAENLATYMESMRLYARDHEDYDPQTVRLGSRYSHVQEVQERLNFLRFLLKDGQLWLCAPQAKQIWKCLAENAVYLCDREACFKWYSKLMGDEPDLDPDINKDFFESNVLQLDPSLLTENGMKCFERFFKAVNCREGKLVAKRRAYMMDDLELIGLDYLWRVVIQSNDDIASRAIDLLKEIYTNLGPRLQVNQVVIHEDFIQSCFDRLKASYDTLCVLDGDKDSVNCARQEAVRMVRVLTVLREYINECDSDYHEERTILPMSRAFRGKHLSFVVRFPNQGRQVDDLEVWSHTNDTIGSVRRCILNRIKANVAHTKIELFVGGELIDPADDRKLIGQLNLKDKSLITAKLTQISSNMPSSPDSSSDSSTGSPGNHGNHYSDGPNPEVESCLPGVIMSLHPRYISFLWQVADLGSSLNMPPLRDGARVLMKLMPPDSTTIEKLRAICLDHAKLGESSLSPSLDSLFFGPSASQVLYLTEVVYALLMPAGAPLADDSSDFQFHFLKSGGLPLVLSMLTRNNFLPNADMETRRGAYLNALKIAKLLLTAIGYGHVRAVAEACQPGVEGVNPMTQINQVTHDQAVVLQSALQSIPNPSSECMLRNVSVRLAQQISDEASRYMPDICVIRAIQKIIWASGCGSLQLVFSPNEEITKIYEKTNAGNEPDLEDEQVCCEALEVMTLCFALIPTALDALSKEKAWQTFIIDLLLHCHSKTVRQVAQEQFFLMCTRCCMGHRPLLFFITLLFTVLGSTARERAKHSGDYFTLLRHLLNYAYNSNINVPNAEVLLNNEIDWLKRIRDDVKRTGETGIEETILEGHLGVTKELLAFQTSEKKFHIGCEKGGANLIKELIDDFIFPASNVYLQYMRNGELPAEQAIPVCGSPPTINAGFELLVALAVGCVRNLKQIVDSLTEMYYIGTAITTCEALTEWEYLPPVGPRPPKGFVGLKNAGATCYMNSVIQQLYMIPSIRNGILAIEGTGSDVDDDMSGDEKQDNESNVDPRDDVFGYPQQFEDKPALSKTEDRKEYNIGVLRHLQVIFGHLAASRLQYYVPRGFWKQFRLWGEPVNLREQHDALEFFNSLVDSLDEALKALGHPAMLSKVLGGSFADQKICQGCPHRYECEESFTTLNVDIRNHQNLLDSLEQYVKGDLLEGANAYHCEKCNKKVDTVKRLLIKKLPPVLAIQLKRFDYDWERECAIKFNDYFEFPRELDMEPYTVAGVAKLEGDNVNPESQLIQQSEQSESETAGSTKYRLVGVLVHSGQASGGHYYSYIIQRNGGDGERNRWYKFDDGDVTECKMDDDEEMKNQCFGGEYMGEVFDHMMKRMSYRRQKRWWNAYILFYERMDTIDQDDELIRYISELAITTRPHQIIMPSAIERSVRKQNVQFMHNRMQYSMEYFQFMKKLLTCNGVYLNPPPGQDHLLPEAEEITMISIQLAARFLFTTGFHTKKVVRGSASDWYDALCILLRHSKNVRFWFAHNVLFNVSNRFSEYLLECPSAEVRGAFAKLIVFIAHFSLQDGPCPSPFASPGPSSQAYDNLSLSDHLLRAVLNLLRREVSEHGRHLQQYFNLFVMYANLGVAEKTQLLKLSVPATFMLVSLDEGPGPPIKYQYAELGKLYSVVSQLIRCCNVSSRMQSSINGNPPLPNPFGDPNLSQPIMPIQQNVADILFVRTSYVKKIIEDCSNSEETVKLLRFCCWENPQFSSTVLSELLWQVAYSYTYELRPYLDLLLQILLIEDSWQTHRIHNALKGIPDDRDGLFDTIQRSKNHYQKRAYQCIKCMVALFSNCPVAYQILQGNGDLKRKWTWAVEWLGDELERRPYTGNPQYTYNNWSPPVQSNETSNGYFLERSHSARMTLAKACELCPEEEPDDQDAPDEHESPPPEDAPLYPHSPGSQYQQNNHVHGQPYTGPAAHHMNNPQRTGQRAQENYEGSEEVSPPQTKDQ

These are yes or no findings as the source states them, for the method shown. Binding seen in cells or lysates may run through a third protein. Some results given as binding are weak or reduced against the parent protein; the word gives no strength.

In this experiment the target is STAT3 (human (endogenous in KYSE30 and KYSE510)) (UniProt P40763). In words: co-IP; reciprocal co-immunoprecipitation from ESCC cell lysates (weak RIPA lysis buffer with protease and phosphatase inhibitors), Dynabeads Protein G, eluate analysed by Western blot. (In general: A western blot detects proteins with antibodies after separation by electrophoresis.)
With “ubiquitin-specific protease 5 (USP5) (from UniProt P45974-1 1-858) (enzyme)”, the binding result is reported as “binds”.
Under “USP24 (from UniProt Q9UPU5 1-2620) (enzyme)” stands “no binding”; under “USP9X (from UniProt Q93008 1-2554) (enzyme)”, “no binding”.
